The values that follow come from US4680382A, “Analogues of actinomycin D” (priority 1986, dated 1987).

“And” between values parts separate entries of the source, which are not always exact repeats. Equal values may be shown once. *1 amine or outer side, *2 acyl side, *3 side chain or, on linkers, in order; H or OH if unused. Where a SMILES comes first, the peptide text is derived from it. Bridges are numbered along the chain shown (N, C = ends). Roman numbers before positions name the chains, in order. [ ]: non-standard residue; d: D form. Actinocin(9to1) = Cc1c2oc3c(C)ccc(C(=O)[*:1])c3nc-2c(C(=O)[*:2])c(N)c1=O; NMeV = CN[C@H](C(=O)O)C(C)C; Sar = CNCC(=O)O

The data set deals with P388 Leukemia. Put plainly: Minimum effective dose and therapeutic index vs. P388 leukemia. The class given is in vivo, mice. The protocol:
These analogues were also tested in tumor-free BDF1 male mice for determination of their MTD values (Table VIII). The animals (18-22 g) were given a broad range of doses of drugs in 5% dimethyl sulfoxide-saline on days 1, 5 and 9. Drugs were administered ip and the maximum tolerated doses of agents which caused death in only 10% of the tested animals in 21 days (i.e., LD10) were recorded as MTD. […] However, the MED values of 7-hydroxy-AMD and its precursor AMD-OZL 10a are high and are seven to tenfold of the MED values of 4a and 8a. On the basis of these MED values, the therapeutic indices of 8a and 4a are 70 and 96. The therapeutic index of 2a is 13, of 10a 10, and of AMD only 4.
^a Drugs administered ip once on days 1, 5 and 9 starting 1 day after
tumor implantation. Determinations were made from analysis of plotted
^b MED (minimum effective dose) is the dose (milligram/kilogram)
providing an increase in life span of 45% over control in P388 tumor
`Cc1c2oc3c(C)c(O)cc(C(=O)N[C@@H]4C(=O)N[C@H](C(C)C)C(=O)N5CCC[C@H]5C(=O)N(C)CC(=O)N(C)[C@@H](C(C)C)C(=O)O[C@@H]4C)c3nc-2c(C(=O)N[C@@H]2C(=O)N[C@H](C(C)C)C(=O)N3CCC[C@H]3C(=O)N(C)CC(=O)N(C)[C@@H](C(C)C)C(=O)O[C@@H]2C)c(N)c1=O` [2a, 7-hydroxyactinomycin D, reference compound]: the “therapeutic index MTD/MED” value is 13.
As for `Cc1c2oc3c(C)c4oc(-c5ccccc5)nc4c(C(=O)NC4C(=O)NC(C(C)C)C(=O)N5CCCC5C(=O)N(C)CC(=O)N(C)C(C(C)C)C(=O)OC4C)c3nc-2c(C(=O)NC2C(=O)NC(C(C)C)C(=O)N3CCCC3C(=O)N(C)CC(=O)N(C)C(C(C)C)C(=O)OC2C)c(N)c1=O` [8a, 7-Amino-9,11-dimethyl-2-phenyl-8H-8-oxooxazolo [4,5-b]phenoxazine 4,6-bis[carbonyl-L-threonyl-D-valyl-L-prolylsarcosyl-L-N-methylvaline(threonine hydroxyl)] lactone], the “therapeutic index MTD/MED” value is 70 and 60.
For the molecule `Cc1c2oc3c(C)ccc(C(=O)N[C@@H]4C(=O)N[C@H](C(C)C)C(=O)N5CCC[C@H]5C(=O)N(C)CC(=O)N(C)[C@@H](C(C)C)C(=O)O[C@@H]4C)c3nc-2c(C(=O)N[C@@H]2C(=O)N[C@H](C(C)C)C(=O)N3CCC[C@H]3C(=O)N(C)CC(=O)N(C)[C@@H](C(C)C)C(=O)O[C@@H]2C)c(N)c1=O` [AMD, Actinomycin D] (I: T[dV]P[Sar][NMeV] / II: T[dV]P[Sar][NMeV]; ester I:1-I:C, II:1-II:C; linker I:N-II:N via Actinocin(9to1)), the “therapeutic index MTD/MED” value is 4.
Next, `Cc1c2oc3c(C)c4oc(-c5ccccc5)nc4c(C(=O)NC4C(=O)NC(C(C)C)C(=O)N5CCCC5C(=O)N(C)CC(=O)N(C)C(C(C)C)C(=O)OC4C)c3nc-2c(C(=O)NC2C(=O)NC(C(C)C)C(=O)N3CCCC3C(=O)N(C)CC(=O)N(C)C(C(C)C)C(=O)OC2C)cc1=O` (centres unmarked) [10a, 2-Phenyl-AMD--OZL]: 10; `Cc1c2oc3c(C)c(O)c(N)c(C(=O)NC4C(=O)NC(C(C)C)C(=O)N5CCCC5C(=O)N(C)CC(=O)N(C)C(C(C)C)C(=O)OC4C)c3nc-2c(C(=O)NC2C(=O)NC(C(C)C)C(=O)N3CCCC3C(=O)N(C)CC(=O)N(C)C(C(C)C)C(=O)OC2C)c(N)c1=O` (centres unmarked) [4a, 7-Hydroxy-8-amino-actinomycin D]: 96.
